Values from PubChem BioAssay AID1259308 (NCATS, 2017).
Assay: 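Candidate targets for better recombinant protein yield in mammalian cells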 (primary screen). System: human HEK293 embryonic kidney cells stably expressing firefly luciferase (HEK-CMV-Luc2-Hygro). Knock-down reagent: single siRNA against human genes, 0.8 pmol siRNA per well. Time to read-out: 72 h. Measurement: 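Luciferase light (ONE-Glo) measured on one replicate plate set and viability (CellTiter-Glo) on the other, scaled to a negative control siRNA, with robust z-scores and luciferase per cell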. Reading the numbers: total luciferase, z-score and total luciferase, % of control: higher = more reporter protein produced. Active means: 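An siRNA counts as active if its total luciferase robust z-score exceeds 3; genes with two or more such siRNAs out of three were retested with fresh siRNAs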. Calls: active = raised luciferase; inactive = no rise.
Shown is an unselected part of about 59,000 reagents tested. About 1,510 of all reagents (2.6%) were called active. 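Calls use total luciferase alone and ignore viability, so some active siRNAs may act by altering cell number.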 Reagents against one gene are numbered here. Further read-outs or replicates are left out here. Reagent sequences are not shown.

{"target gene":"LYPD6 (LY6/PLAUR domain containing 6)","siRNA no.":1,"total luciferase, z-score":-0.147,"total luciferase, % of control":79,"activity call":"inactive"}
{"target gene":"LYPD6 (LY6/PLAUR domain containing 6)","siRNA no.":2,"total luciferase, z-score":-0.54,"total luciferase, % of control":71.1,"activity call":"inactive"}
{"target gene":"LYPD6 (LY6/PLAUR domain containing 6)","siRNA no.":3,"total luciferase, z-score":0.0507,"total luciferase, % of control":82.9,"activity call":"inactive"}
{"target gene":"MSX1 (msh homeobox 1)","siRNA no.":1,"total luciferase, z-score":0.629,"total luciferase, % of control":94.4,"activity call":"inactive"}
{"target gene":"MSX1 (msh homeobox 1)","siRNA no.":2,"total luciferase, z-score":-0.282,"total luciferase, % of control":76.3,"activity call":"inactive"}
{"target gene":"MSX1 (msh homeobox 1)","siRNA no.":3,"total luciferase, z-score":0.523,"total luciferase, % of control":92.3,"activity call":"inactive"}
{"target gene":"OR6C74 (olfactory receptor family 6 subfamily C member 74)","siRNA no.":1,"total luciferase, z-score":0.83,"total luciferase, % of control":98.4,"activity call":"inactive"}
{"target gene":"OR6C74 (olfactory receptor family 6 subfamily C member 74)","siRNA no.":2,"total luciferase, z-score":-0.0349,"total luciferase, % of control":81.2,"activity call":"inactive"}
{"target gene":"OR6C74 (olfactory receptor family 6 subfamily C member 74)","siRNA no.":3,"total luciferase, z-score":-0.808,"total luciferase, % of control":65.8,"activity call":"inactive"}
{"target gene":"NNAT (neuronatin)","siRNA no.":1,"total luciferase, z-score":0.525,"total luciferase, % of control":92.3,"activity call":"inactive"}
{"target gene":"NNAT (neuronatin)","siRNA no.":2,"total luciferase, z-score":-0.878,"total luciferase, % of control":64.4,"activity call":"inactive"}
{"target gene":"NNAT (neuronatin)","siRNA no.":3,"total luciferase, z-score":0.016,"total luciferase, % of control":82.2,"activity call":"inactive"}
{"target gene":"SBF2-AS1 (SBF2 antisense RNA 1)","siRNA no.":1,"total luciferase, z-score":0.51,"total luciferase, % of control":92,"activity call":"inactive"}
{"target gene":"SBF2-AS1 (SBF2 antisense RNA 1)","siRNA no.":2,"total luciferase, z-score":-0.446,"total luciferase, % of control":73,"activity call":"inactive"}
{"target gene":"SBF2-AS1 (SBF2 antisense RNA 1)","siRNA no.":3,"total luciferase, z-score":-0.328,"total luciferase, % of control":75.4,"activity call":"inactive"}
{"target gene":"KLHL31 (kelch like family member 31)","siRNA no.":1,"total luciferase, z-score":0.246,"total luciferase, % of control":86.8,"activity call":"inactive"}
{"target gene":"KLHL31 (kelch like family member 31)","siRNA no.":2,"total luciferase, z-score":1.67,"total luciferase, % of control":115,"activity call":"inactive"}
{"target gene":"KLHL31 (kelch like family member 31)","siRNA no.":3,"total luciferase, z-score":-1.27,"total luciferase, % of control":56.6,"activity call":"inactive"}
{"target gene":"CLN6 (CLN6 transmembrane ER protein)","siRNA no.":1,"total luciferase, z-score":-0.215,"total luciferase, % of control":77.6,"activity call":"inactive"}
{"target gene":"CLN6 (CLN6 transmembrane ER protein)","siRNA no.":2,"total luciferase, z-score":0.982,"total luciferase, % of control":101,"activity call":"inactive"}
{"target gene":"CLN6 (CLN6 transmembrane ER protein)","siRNA no.":3,"total luciferase, z-score":1.1,"total luciferase, % of control":104,"activity call":"inactive"}
{"target gene":"MAGEA8 (MAGE family member A8)","siRNA no.":1,"total luciferase, z-score":1.78,"total luciferase, % of control":117,"activity call":"inactive"}
{"target gene":"MAGEA8 (MAGE family member A8)","siRNA no.":2,"total luciferase, z-score":-1.15,"total luciferase, % of control":59,"activity call":"inactive"}
{"target gene":"MAGEA8 (MAGE family member A8)","siRNA no.":3,"total luciferase, z-score":-1.04,"total luciferase, % of control":61.2,"activity call":"inactive"}
{"target gene":"LINC00632 (long independently transcribed non-coding RNA 632)","siRNA no.":1,"total luciferase, z-score":4.56,"total luciferase, % of control":173,"activity call":"active"}
{"target gene":"LINC00632 (long independently transcribed non-coding RNA 632)","siRNA no.":2,"total luciferase, z-score":1.48,"total luciferase, % of control":111,"activity call":"inactive"}
{"target gene":"LINC00632 (long independently transcribed non-coding RNA 632)","siRNA no.":3,"total luciferase, z-score":1.36,"total luciferase, % of control":109,"activity call":"inactive"}
{"target gene":"EBAG9 (estrogen receptor binding site associated antigen 9)","siRNA no.":1,"total luciferase, z-score":-0.123,"total luciferase, % of control":79.4,"activity call":"inactive"}
{"target gene":"EBAG9 (estrogen receptor binding site associated antigen 9)","siRNA no.":2,"total luciferase, z-score":-0.323,"total luciferase, % of control":75.5,"activity call":"inactive"}
{"target gene":"EBAG9 (estrogen receptor binding site associated antigen 9)","siRNA no.":3,"total luciferase, z-score":4.71,"total luciferase, % of control":176,"activity call":"active"}
{"target gene":"AK8 (adenylate kinase 8)","siRNA no.":1,"total luciferase, z-score":-0.223,"total luciferase, % of control":77.5,"activity call":"inactive"}
{"target gene":"AK8 (adenylate kinase 8)","siRNA no.":2,"total luciferase, z-score":0.476,"total luciferase, % of control":91.3,"activity call":"inactive"}
{"target gene":"AK8 (adenylate kinase 8)","siRNA no.":3,"total luciferase, z-score":1.71,"total luciferase, % of control":116,"activity call":"inactive"}
